# Source: patent US20150099796
# The exact form of at least one protein or probe is not confirmed. No signal at the amounts used counts as a negative.
# How the values were obtained:
# [1] = test system: U1 snRNP (U1 small nuclear ribonucleoprotein, HeLa) (Homo sapiens); assay: EMSA; conditions: purified native protein
# [2] = test system: U1 snRNP (U1 small nuclear ribonucleoprotein, HeLa) (Homo sapiens); assay: competition with a labelled probe; conditions: LNA/DNA Target Domain, 2'-OMe U1 Domain (7 nt); no detectable competition against 32P-U1D-RNA; purified native protein
sequence,measurement,setting,value
CAACUCACUA [mutated U1 Domain RNA],binding result,"[1]; CITED Abad 2008, Gunderson 1998, variant of 10 nt U1 Domain RNA",no binding
CAGAAATACACAATACAACTCACTA [UA7a Adaptor (LNA7)],binding result,"[1]; LNA/DNA mixmer, mutated U1 Domain, no complex, variant of UA6 Adaptor (LNA6)",no binding
CAGAAATACACAATACAGGTAAGTA [UA6 Adaptor (LNA6)],binding result,"[1]; LNA/DNA mixmer, radiolabeled UA6 bound, unlabeled UA6 also tethers U1 snRNP to 32P-UA6-RNA, recognition by base pairing with U1 snRNA, 100 mM KCl, 1.5 mM MgCl2, pH 7.9",binds
CAGAAATACACAATACAGGUAA [UA17-7 Adaptor],binding result,[2],no binding
CAGGUAAGUA [10 nt U1 Domain RNA],binding result,"[1]; CITED Abad 2008, Gunderson 1998",binds
